PubChem BioAssay AID1224827 – NIAID – 2016
Assay: 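Retest primary hits on a TNF reporter with six siRNAs per gene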 (follow-up of hits). Cell system: RAW264.7 G9 mouse macrophage reporter clone. Reagents: single siRNA against mouse genes, 100 nM siRNA. Duration: siRNA for 2 days, then LPS about 16 h. Conditions: bacterial lipopolysaccharide (LPS), 10 ng/ml, cells fixed after overnight (about 16 h) stimulation. Measurement: 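TNF promoter reporter red fluorescence in nuclei, background subtracted, normalised per plate and to non-targeting control siRNA, as z-scores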. Scale: TNF reporter z-score, mean: higher = stronger Tnf promoter reporter signal. Hit rule: 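An siRNA is called active when its mean z-score over replicates is at least +2 or at most -2; control wells get no call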.
The whole screen tested about 3,800 reagents; this is an unselected part. About 2,200 of all reagents (57%) were called active. 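Active means a strong reporter change in either direction; calls are per siRNA, not per gene; qiagen siRNAs gave weaker effects.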 The numbers tell different reagents against one gene apart. Not all columns of the deposit are shown. Reagent sequences are not shown.

TNF reporter z-score, mean, by gene knocked down and reagent
Or4c107: #1 -1.69 inactive; #2 -2.54 active; #3 -3.8 active; #4 0.637 inactive; #5 -0.999 inactive; #6 -1.16 inactive
Gsta3: #1 -2.96 active; #2 -3.06 active; #3 -3.51 active; #4 3.24 active; #5 0.328 inactive; #6 0.368 inactive
Ppm1a: #1 0.309 inactive; #2 -1.26 inactive; #3 -4.99 active; #4 3.49 active; #5 0.988 inactive; #6 -3.52 active
Spag1: #1 -3.52 active; #2 -4.2 active; #3 -6.28 active; #4 3.89 active; #5 -2.43 active; #6 -2.56 active
Ctps2: #1 -2.08 active; #2 -3.72 active; #3 -4.77 active; #4 1.7 inactive; #5 1.56 inactive; #6 0.971 inactive
Ubqln2: #1 -0.708 inactive; #2 -3.13 active; #3 -3.62 active; #4 3.98 active; #5 -3.57 active; #6 -4.23 active
Eif3b: #1 -2.08 active; #2 -3.89 active; #3 -5.15 active; #4 -0.731 inactive; #5 -1.74 inactive; #6 -2.9 active
Mapre3: #1 -0.358 inactive; #2 -2.44 active; #3 -4.61 active; #4 2.05 active; #5 1.16 inactive; #6 -2.93 active
Scart2: #1 -1.07 inactive; #2 -1.95 inactive; #3 -3.52 active; #4 4.11 active; #5 2.59 active; #6 2.1 active
Rpn2: #1 -3.73 active; #2 -4.37 active; #3 -4.41 active; #4 1.29 inactive; #5 1.07 inactive; #6 -1.32 inactive
Fbxl22: #1 0.971 inactive; #2 0.565 inactive; #3 -2.06 active; #4 0.377 inactive; #5 -1.2 inactive; #6 -1.37 inactive
Stradb: #1 3.69 active; #2 -0.56 inactive; #3 -2.11 active; #4 5.17 active; #5 3.46 active; #6 -1.05 inactive
Cyp4a10: #1 -3.48 active; #2 -4.04 active; #3 -4.87 active; #4 4.32 active; #5 4.14 active; #6 -2.45 active

5 entries from above, ordered by “TNF reporter z-score, mean”, descending:
gene knocked down	reagent	TNF reporter z-score, mean	activity call
Gsta3	4	3.24	active
Gsta3	5	0.328	inactive
Gsta3	1	-2.96	active
Gsta3	2	-3.06	active
Gsta3	3	-3.51	active
